Results taken from US9199941B2, “Pyrazole indanyl carboxamides” (BAYER CROPSCIENCE AG, priority 2012, dated 2015).

Experiment: log P by HPLC on reversed phase columns (EEC directive 79/831 Annex V.A8)
Assay type: physicochemical
Settings: Table 1, compounds of formula (I); method [a]: LC-MS at pH 2.7, 0.1% formic acid in water / acetonitrile

CC(C)CC1CC(C)c2c(NC(=S)c3cn(C)nc3C(F)F)cccc21 (stereo not shown) [Example 44]
logP: 4.61[a]
